# In article PMC10338675:
# Chains of the proteins cited; added tags and fusions are not shown.
# UniProt Q01469: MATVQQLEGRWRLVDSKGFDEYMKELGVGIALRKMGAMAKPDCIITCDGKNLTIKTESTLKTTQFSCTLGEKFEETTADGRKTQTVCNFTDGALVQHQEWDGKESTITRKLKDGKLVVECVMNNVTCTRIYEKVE
# Biological target: T1, neuroblastoma-associated small protein (NBASP), encoded by ORF1 of FAM201A, with a C-terminal FLAG tag (human) (UniProt Q5SY85)
# T1 sequence: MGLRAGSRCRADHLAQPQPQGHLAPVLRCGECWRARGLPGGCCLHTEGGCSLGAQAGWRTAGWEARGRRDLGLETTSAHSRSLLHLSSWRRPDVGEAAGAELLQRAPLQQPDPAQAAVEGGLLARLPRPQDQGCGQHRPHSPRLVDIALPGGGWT
# Assay: affinity purification with mass spectrometry; whole cell lysates of cells transfected with the ORF plasmid or the FLAG empty vector; Dynabead Protein G immunoprecipitation; SDS-PAGE, silver staining, differential bands excised and analysed by mass spectrometry
substance,measurement,value
fatty acid-binding protein 5 (FABP5) (from UniProt Q01469 1-135),binding,binds

# Results are given in words; binding and its absence hold for the method and conditions named. Binding seen in cells or lysates may run through a third protein. A yes stands for co-enrichment or nearness to the bait. Other partners may have been found. Sequences can lack the tags named with a protein.
